Measurements taken from publication PMC12711663.
Results are given in words; binding and its absence hold for the method and conditions named. Binding seen in cells or lysates may run through a third protein. Some binding calls cover weakened binding; strength is not graded here.

Sequences of proteins named here, by UniProt entry; tags and fusion partners are left off.
UniProt P42224: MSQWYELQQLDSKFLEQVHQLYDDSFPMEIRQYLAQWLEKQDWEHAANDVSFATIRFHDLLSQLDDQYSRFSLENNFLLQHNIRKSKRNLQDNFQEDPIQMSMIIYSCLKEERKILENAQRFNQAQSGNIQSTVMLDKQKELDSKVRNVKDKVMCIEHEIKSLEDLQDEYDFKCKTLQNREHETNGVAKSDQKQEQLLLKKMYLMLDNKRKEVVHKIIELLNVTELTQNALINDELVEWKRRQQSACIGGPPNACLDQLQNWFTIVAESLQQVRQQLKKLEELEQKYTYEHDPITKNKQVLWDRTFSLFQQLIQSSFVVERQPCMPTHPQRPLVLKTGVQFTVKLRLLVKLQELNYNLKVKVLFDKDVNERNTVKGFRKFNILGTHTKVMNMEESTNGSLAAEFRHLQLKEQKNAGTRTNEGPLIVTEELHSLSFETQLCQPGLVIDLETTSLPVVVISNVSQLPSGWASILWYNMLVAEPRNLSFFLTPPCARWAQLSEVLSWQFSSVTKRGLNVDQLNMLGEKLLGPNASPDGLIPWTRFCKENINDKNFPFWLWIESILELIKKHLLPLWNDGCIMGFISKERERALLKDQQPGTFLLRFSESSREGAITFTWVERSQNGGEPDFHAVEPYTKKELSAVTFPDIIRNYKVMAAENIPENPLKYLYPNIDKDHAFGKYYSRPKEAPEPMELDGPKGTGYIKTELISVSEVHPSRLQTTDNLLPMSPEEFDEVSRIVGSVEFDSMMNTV
UniProt Q92831: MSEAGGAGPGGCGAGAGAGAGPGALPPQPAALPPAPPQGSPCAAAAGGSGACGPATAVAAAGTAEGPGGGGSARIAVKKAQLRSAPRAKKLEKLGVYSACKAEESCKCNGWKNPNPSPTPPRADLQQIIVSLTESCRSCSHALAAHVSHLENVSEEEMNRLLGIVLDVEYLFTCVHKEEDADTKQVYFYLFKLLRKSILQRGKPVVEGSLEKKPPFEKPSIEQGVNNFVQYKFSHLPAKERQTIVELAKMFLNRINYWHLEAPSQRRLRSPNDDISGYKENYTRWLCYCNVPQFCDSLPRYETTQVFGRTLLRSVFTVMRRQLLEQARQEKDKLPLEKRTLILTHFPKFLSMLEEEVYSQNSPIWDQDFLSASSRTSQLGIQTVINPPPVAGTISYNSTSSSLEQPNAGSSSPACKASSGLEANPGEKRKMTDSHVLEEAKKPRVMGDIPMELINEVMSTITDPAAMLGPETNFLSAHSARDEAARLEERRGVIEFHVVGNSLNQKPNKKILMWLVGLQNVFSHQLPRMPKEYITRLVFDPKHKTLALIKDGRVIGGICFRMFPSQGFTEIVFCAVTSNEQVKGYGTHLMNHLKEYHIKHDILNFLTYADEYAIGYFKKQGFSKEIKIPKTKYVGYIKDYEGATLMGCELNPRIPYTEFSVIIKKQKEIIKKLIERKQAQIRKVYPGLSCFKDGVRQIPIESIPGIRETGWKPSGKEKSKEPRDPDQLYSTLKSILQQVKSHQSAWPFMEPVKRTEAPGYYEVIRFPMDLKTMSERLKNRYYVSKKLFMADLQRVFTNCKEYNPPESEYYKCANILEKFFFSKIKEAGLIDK
UniProt Q92830: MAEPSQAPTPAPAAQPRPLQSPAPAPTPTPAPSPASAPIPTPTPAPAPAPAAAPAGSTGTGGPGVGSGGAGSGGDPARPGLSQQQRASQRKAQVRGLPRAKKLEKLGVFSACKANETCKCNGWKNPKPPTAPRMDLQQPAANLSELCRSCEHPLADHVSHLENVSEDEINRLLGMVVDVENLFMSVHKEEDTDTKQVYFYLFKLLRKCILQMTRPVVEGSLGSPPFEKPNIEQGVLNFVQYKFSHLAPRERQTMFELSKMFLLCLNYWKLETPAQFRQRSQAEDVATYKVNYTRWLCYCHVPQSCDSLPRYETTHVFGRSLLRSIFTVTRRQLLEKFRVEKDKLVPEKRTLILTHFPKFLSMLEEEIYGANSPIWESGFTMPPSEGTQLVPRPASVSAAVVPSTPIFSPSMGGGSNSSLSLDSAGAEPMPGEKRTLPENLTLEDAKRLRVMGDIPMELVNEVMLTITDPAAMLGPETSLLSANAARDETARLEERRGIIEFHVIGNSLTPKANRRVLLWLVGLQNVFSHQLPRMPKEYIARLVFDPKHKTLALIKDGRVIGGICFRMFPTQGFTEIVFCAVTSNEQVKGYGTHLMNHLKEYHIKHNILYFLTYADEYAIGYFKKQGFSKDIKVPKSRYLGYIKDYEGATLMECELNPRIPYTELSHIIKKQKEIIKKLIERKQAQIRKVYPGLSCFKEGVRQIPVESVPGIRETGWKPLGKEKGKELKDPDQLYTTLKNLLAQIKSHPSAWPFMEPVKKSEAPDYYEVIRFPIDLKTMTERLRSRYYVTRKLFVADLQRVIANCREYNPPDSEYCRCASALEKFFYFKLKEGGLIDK

Assays:
endogenous STAT1 = endogenous STAT1 (UniProt P42224); experiment: co-IP; endogenous STAT1 and PCAF (Figure S6H); cells and bait not given
[1] = molecular target: STAT1 (wild-type, reconstituted in cetuximab-resistant cells) (human) (UniProt P42224); experiment: co-IP; lysates of CAL-27-Ctx^R-STAT1 and OECM-1-Ctx^R-STAT1 cells treated with MG132 (10 μM) for 16 h; Co-IP buffer 150 mM NaCl, 1% NP-40, 1 mM EDTA, 5% glycerol, 50 mM Tris-HCl pH 7.5, 4°C; western blot

Row | binding (endogenous STAT1) | binding [1] | Substance
1 | binds | binds | PCAF (from UniProt Q92831 1-832) (enzyme)
2 |  | binds | GCN5 (from UniProt Q92830 1-837) (enzyme)
